Source: publication PMC4403447
No constants are given. Whether binding was seen depends on the method and setting. Binding calls can cover weak binding; strength is not graded here.

Chains of the proteins cited; added tags and fusions are not shown. Lines headed by an entry give the natural chain unless they say otherwise; changes in a name come on top.
UniProt P10591: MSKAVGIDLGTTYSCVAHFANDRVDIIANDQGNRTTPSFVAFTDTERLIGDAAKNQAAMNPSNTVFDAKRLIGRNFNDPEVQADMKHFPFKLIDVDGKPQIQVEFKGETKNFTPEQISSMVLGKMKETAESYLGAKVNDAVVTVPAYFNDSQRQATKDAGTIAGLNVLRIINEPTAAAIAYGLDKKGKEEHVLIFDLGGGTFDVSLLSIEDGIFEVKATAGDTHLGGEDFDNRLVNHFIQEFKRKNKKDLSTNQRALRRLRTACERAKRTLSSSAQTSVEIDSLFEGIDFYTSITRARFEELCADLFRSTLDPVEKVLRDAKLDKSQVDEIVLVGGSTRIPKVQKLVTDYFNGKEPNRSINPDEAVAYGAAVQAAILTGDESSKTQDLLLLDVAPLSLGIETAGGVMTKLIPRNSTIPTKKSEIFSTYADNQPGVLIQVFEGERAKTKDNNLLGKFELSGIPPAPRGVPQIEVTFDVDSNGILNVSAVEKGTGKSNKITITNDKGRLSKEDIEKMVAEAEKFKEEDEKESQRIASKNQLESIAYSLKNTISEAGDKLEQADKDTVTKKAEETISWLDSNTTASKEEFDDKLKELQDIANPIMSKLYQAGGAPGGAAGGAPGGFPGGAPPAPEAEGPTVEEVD
UniProt P15705: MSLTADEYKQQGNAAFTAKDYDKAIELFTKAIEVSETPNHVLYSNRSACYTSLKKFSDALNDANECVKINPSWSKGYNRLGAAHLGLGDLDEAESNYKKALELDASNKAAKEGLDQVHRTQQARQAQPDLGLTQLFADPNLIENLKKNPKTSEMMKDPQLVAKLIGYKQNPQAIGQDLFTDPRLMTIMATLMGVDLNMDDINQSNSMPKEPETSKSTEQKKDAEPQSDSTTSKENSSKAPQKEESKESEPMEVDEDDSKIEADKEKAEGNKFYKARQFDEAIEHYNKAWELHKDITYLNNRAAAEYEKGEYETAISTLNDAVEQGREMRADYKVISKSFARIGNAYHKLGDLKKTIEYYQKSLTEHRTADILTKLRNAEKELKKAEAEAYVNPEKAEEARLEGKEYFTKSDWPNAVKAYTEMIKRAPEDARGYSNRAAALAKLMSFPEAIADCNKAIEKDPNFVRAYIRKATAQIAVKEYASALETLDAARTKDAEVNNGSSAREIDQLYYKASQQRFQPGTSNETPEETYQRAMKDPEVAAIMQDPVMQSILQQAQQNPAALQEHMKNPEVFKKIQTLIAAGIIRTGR

Biological target: yHsp70 (Ssa1) (yeast) (UniProt P10591)
Experiment: SPR; Hsp70 amine-coupled to a CM5 chip, Sti1 variants as analyte; 40 mM Hepes pH 7.5, 20 mM KCl, 5 mM MgCl2, 0.005% Tween; 10 μl/min; 20 °C; Langmuir isotherm; affinities shown normalized to wild-type Sti1; both purified

- binding: binds
Substance: Sti1 Δlinker N39A (from UniProt P15705)
